Data as given in PubChem BioAssay AID602196 (INSERM, 2012).

- Purpose: 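Modifiers of cisplatin sensitivity in A549 cells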
- System: human A549 lung cancer cells
- Knock-down reagent: siRNA pair against human genes
- Timing: 48 h transfection before cisplatin; time from cisplatin to read-out not stated
- Treatment: cisplatin at a dose killing half of control-siRNA cells; exact dose and duration not given
- Measurement: 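Shift in cisplatin death relative to control siRNA, from -50 (all cells die) to +50 (no cells die); siRNAs harmful on their own scored 0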
- Direction: two-siRNA summed score (-2 to +2): higher = both siRNAs protect from cisplatin killing; -2 means both sensitise
- Active means: 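Each siRNA scores 0 if harmful alone by LDH or WST-1, otherwise +1 if it reduces and -1 if it increases cisplatin killing; a gene is active when both siRNAs agree (sum +2 or -2)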
- Calls: active = both siRNAs shift cisplatin killing the same way; inactive = no consistent shift, or siRNA harmful alone
Shown is an unselected part of about 23,000 reagents. Over the whole deposit, 455 (2%) are marked active. 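Active includes both protection and sensitisation; some change values fall well beyond the stated -50 to +50 range.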 Further read-outs or replicates are left out here. No sequences are given here. Not stated in the record: the amount of reagent.

For SLC7A8 the deposit lists two-siRNA summed score (-2 to +2) = 0; inactive.
Against LOC440763 the deposit lists two-siRNA summed score (-2 to +2) = 1; inactive.
With knock-down of KIAA1639, the screen gave two-siRNA summed score (-2 to +2) = 0; inactive.
After knock-down of ECEL1 the results were two-siRNA summed score (-2 to +2) = -1; inactive.
After knock-down of POM121L8P the results were two-siRNA summed score (-2 to +2) = 1; inactive.
Depletion of LOC91461 gave: two-siRNA summed score (-2 to +2) = 1; inactive.
For ANP32CP, the entry reads two-siRNA summed score (-2 to +2) = 0; inactive.
After knock-down of CMPK1, the record shows two-siRNA summed score (-2 to +2) = 0; inactive.
Knock-down of LYPD4 resulted in: two-siRNA summed score (-2 to +2) = -1; inactive.
Against NICN1, the values are two-siRNA summed score (-2 to +2) = 0; inactive.
Silencing of VEGFB came out at: two-siRNA summed score (-2 to +2) = 0; inactive.
Depletion of PPP2R2B gave: two-siRNA summed score (-2 to +2) = 0; inactive.

Entries listed so far whose gene name begins with L or l:
LOC440763 | two-siRNA summed score (-2 to +2): 1; call: inactive
LOC91461 | two-siRNA summed score (-2 to +2): 1; call: inactive
LYPD4 | two-siRNA summed score (-2 to +2): -1; call: inactive
